Experimental data published in PubChem BioAssay AID2685 (National Center for Advancing Translational Sciences (NCATS), 2010).
This is one part of the list. Shown are side measurements of this screen, not its main read-out; they come without a call. Compounds called inactive in the main read-out are mostly missing here. Potencies come from curve fits of mixed quality, noted in brackets.

Assay: qHTS Assay for Lipid Storage Modulators in Drosophila S3 Cells;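 as to cell number change: cells counted by Cell Tracker Red CMTPX staining in the red channel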
Conditions: BODIPY lipid droplet fluorescence, 18-24 h; for cell number change: measured here: cell count max response, cells fed with added oleic acid
Method in brief: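 Laser-scanning cytometry quantifies lipid droplet accumulation (500–530 nm total intensity; droplet/cell object ratio) in oleic acid-fed (400 uM added) Drosophila S3 cells treated with a concentration series. 20 uM Triacsin C defined 100% inhibition.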

[1] = measured here: cell number channel AC50, cells fed with added oleic acid
[2] = measured here: lipid fluorescence (Fed channel) AC50, cells fed with added oleic acid

| Compound | cell number change [%] | AC50 [1] | AC50 [2] |
| --- | --- | --- | --- |
| CCOC(=O)N1CCN(CC(=O)N2c3ccccc3CCc3ccccc32)CC1 | 16.9 | – | – |
| CC1(C)CC(=O)C2=C(C1)NCN(Cc1ccc3c(c1)OCO3)C2 | 38.1 | 16.4 µM [rising, single point] | 20.6 µM [rising, partial curve] |
| Oc1ccccc1/C=N/[n+]1ccccc1 | -17.3 | – | 0.517 µM [falling, full curve] |
| COc1cccc(-n2nnc3c(=O)n(Cc4cccc(F)c4)cnc32)c1 | -35.2 | 20.6 µM [falling, partial curve] | 20.6 µM [falling, single point] |
| CCOc1ccccc1C(=O)Nc1ccsc1C(=O)OC | 27.9 | – | 1.64 µM [rising, full curve] |
| O=C(COC(=O)CNS(=O)(=O)c1ccc(F)c(F)c1F)Nc1ccc(OC(F)F)cc1 | 3.23 | – | – |
| Cc1ccc(OCCn2cnc3ccccc3c2=O)c([N+](=O)[O-])c1 | -56.1 | 29.1 µM [falling, partial curve, poor fit] | – |
| COC(=O)CCC(=O)c1ccn(S(=O)(=O)c2ccccc2)c1 | 14.3 | – | 13 µM [rising, partial curve, poor fit] |
| C/C(CC(=O)Nc1cccc(C(F)(F)F)c1)=N\NC(=O)c1ccncc1 | – | – | 2.82 µM [falling, partial curve] |
| COc1cc(-n2c(C)nc3cc(C(=O)NCC4CCCO4)ccc32)cc(OC)c1OC (stereo unspecified) | 11.6 | – | – |
| Cc1ccccc1NC(=O)c1c(C)nn(-c2ccccc2)c1Cl | 41 | 16.4 µM [rising, single point] | – |
| Cc1cc(C)cc(OCC(=O)OCC(=O)N2CCc3ccccc32)c1 | -28.5 | 3.66 µM [falling, full curve, poor fit] | – |
| CCCCCCCC(=O)N/N=C(/C)c1c(O)cc(C)oc1=O | 9.96 | – | 6.51 µM [rising, single point] |
| CCCc1ccc(C(=O)NNc2cc(Cl)ccc2Cl)cc1 | -24.7 | – | 1.03 µM [falling, full curve, poor fit] |
| CCCc1cc(=O)oc2cc(OCC(=O)N(C)C)c(Cl)cc12 | -15.3 | – | 6.51 µM [rising, partial curve, poor fit] |
| O=S1(=O)N[C@@H](CC2=CCCCC2)C2CCCCC2O1 (stereo partly specified) | 16.5 | – | – |
| COc1ccccc1CNC(=O)COC(=O)CCN=C1NS(=O)(=O)c2ccccc21 | – | 4.61 µM [falling, single point] | 13 µM [falling, partial curve] |
| CCOP(=O)(c1ccc(N(C)C)cc1)C(O)c1ccccc1OC (stereo unspecified) | -11 | – | – |
| C=CCn1c(COc2ccc(F)cc2)nnc1SCC(=O)NC1CCCC1 | -46.8 | 46.1 µM [falling, single point] | 5.8 µM [falling, partial curve] |
| Cc1cc(OCC(=O)Nc2ccc3c(c2)OCCO3)cc(C)c1Cl | 19.9 | – | – |

| Compound | cell number change [%] | AC50 [1] | AC50 [2] |
| --- | --- | --- | --- |
| O=C(NCc1ccccn1)c1ccc(COc2ccc(Cl)cc2)o1 | -5.7 | – | 0.103 µM [rising, full curve, poor fit] |
| Cc1ccc2[nH]cc(CCNC(=O)C3CCCO3)c2c1 (stereo unspecified) | -9.19 | – | 18.4 µM [rising, partial curve] |
| CCCC(C(=O)NC(C)(C)C)N(Cc1ccc(F)cc1)C(=O)c1snc(C(N)=O)c1N (stereo unspecified) | 5.47 | – | – |
| COc1cc(/C=C/C(=O)N2CCN(c3ccccn3)CC2)cc(OC)c1OC | – | – | 18.4 µM [falling, partial curve] |
| COc1ccc(/C=C/C(=O)c2cccc(-n3cnnn3)c2)cc1O | 11.2 | 0.651 µM [rising, partial curve, poor fit] | – |
| CC1CCCCC1NC(=O)C1Cc2ccccc2CN1S(C)(=O)=O (stereo unspecified) | -4.05 | – | 2.06 µM [falling, full curve, poor fit] |
| CN(C)CCCNC(=O)Cc1ccc(Br)cc1 | -22.9 | – | 2.06 µM [falling, full curve, poor fit] |
| COc1ccc(OC)c(C2=NOC(C(=O)NCCN3CCOCC3)C2)c1 (stereo unspecified) | – | – | 6.51 µM [falling, partial curve, poor fit] |
| OC(c1nc2ccccc2[nH]1)C(O)C(O)C(O)c1nc2ccccc2[nH]1 (stereo unspecified) | -16 | – | 4.11 µM [falling, full curve, poor fit] |
| COc1ccc(-n2nc3cc(C)c(NC(=O)C(C)C)cc3n2)cc1 | 1.91 | – | 0.58 µM [rising, single point] |
| CNS(=O)(=O)c1cccc(C(=O)OCc2cc(Cl)cc3c2OCOC3)c1 | -9.85 | – | – |
| O=C(CN1C(=O)/C(=C\c2cccc(Br)c2)Oc2ccccc21)NCCCN1CCOCC1 | 16.3 | – | 6.51 µM [rising, single point] |
| O=C(NNc1ccccc1)Nc1ccccc1F | 19.2 | – | – |
| C=CCN1C(=O)/C(=c2\sc3nc(=O)c(Cc4ccccc4Cl)nn3c2=O)c2ccccc21 | 21.4 | 0.461 µM [falling, single point] | 0.517 µM [falling, single point] |
| c1ccc(COc2ccc(OCCn3cncn3)cc2)cc1 | -24.1 | – | – |
| CN(C)S(=O)(=O)c1cccc(NC(=O)COC(=O)c2ccc3c(c2)OCO3)c1 | 22.1 | – | 2.59 µM [rising, single point] |
| COc1ccccc1C(=O)NC(=S)/C=C1/N(C)c2ccccc2C1(C)C | -75.5 | 29.1 µM [falling, single point] | 29.1 µM [falling, single point] |
| CCOC(=O)Cc1csc(NC(=O)/C=C\c2ccccc2)n1 | -16.3 | – | 6.51 µM [falling, single point] |
| COc1ccc(-c2nn(-c3ccccc3)cc2C(=O)N2CCOCC2)cc1 | 20.3 | – | 0.731 µM [falling, single point] |
| CCOc1ccccc1NC(=O)COC(=O)c1cnc(C)cn1 | -24.5 | 0.13 µM [falling, full curve] | 0.164 µM [falling, full curve, poor fit] |

Record cards, from the list above. Values in the order: cell number change [%]	AC50 [1]	AC50 [2]
CN(C)S(=O)(=O)c1cccc(NC(=O)COC(=O)c2ccc3c(c2)OCO3)c1 reads 22.1	–	2.59 µM [rising, single point]
O=S1(=O)N[C@@H](CC2=CCCCC2)C2CCCCC2O1 (stereo partly specified) reads 16.5	–	–

Next part

| Compound | cell number change [%] | AC50 [1] | AC50 [2] |
| --- | --- | --- | --- |
| COc1ccc(S(=O)(=O)N2CCN(C(=O)C3COc4ccccc4O3)CC2)cc1 (stereo unspecified) | 7.63 | – | 3.66 µM [rising, single point] |
| Cc1ccc(NC(=O)CSCC(=O)N2CCN(C(=O)c3ccco3)CC2)cc1 | -9.52 | – | 3.26 µM [falling, partial curve] |
| O=C(CCCOc1ccc(Cl)cc1Cl)N1CCCc2ccccc21 | 71.5 | 2.59 µM [rising, full curve] | 6.51 µM [rising, single point] |
| O=C(O)c1ccc(Nc2nc(-c3cc4ccccc4oc3=O)cs2)cc1O | – | 6.51 µM [rising, single point] | 6.51 µM [rising, single point] |
| CCn1nc(CC(=O)Nc2nnc(CC(=O)N3CCCC3)s2)c2ccccc2c1=O | 0.912 | – | 0.0517 µM [falling, full curve, poor fit] |
| CCOc1ccc(CCNC(=O)COC(=O)c2ccccc2O)cc1OCC | -48 | 32.6 µM [falling, partial curve, poor fit] | 16.4 µM [falling, partial curve, poor fit] |
| O=C1CC(N2CCC(c3nc4ccccc4[nH]3)CC2)C(=O)N1c1ccccc1F (stereo unspecified) | -26.3 | 0.708 µM [falling, full curve, poor fit] | 22.4 µM [falling, partial curve, poor fit] |
| Cn1c(=O)n(CC(=O)N2CCN(c3nnc(-c4ccccc4)c4ccccc34)CC2)c2ccccc21 | – | – | 0.58 µM [rising, single point] |
| O=C(CSc1nnc(-c2ccc3c(c2)OCO3)o1)Nc1ncc(Cl)cc1Cl | 8.02 | – | 7.31 µM [rising, partial curve] |
| C/C(=N\NC(=O)C1CC1)c1ccc(NC(=O)c2ccc(Br)o2)cc1 | -38.1 | – | 0.259 µM [rising, full curve, poor fit] |
| Cc1ccc(NC(=O)CCOc2ccccc2C)cc1C | 4.96 | – | – |
| CCOc1ccc2nc(N=NC3=C(O)CC(C)(C)CC3=O)sc2c1 | -96.9 | 23.1 µM [falling, single point] | 29.1 µM [falling, single point] |
| Cc1ccc(NC(=O)C2C3C=CC(O3)C2C(=O)O)c(C)c1 (stereo unspecified) | -16.5 | – | 6.51 µM [falling, single point] |
| COc1ccc(-n2cnnc2SCC(=O)N(C)c2ccccc2)cc1 | 11.7 | – | 29.1 µM [rising, single point] |
| O=C(OCC(=O)N1CCc2ccccc21)c1ccc([N+](=O)[O-])cc1 | -17.3 | – | 0.82 µM [rising, single point] |
| CCOC(=O)N1CCC(NC(=O)c2ccc3c(c2)N(C)CCS3)CC1 | -32.6 | 16.4 µM [falling, single point] | 16.4 µM [falling, single point] |
| CCOCc1nnc(NC(=O)c2cccc(OC)c2)s1 | 3.16 | – | 0.731 µM [rising, full curve, poor fit] |
| COc1ccc(NC(=O)CSc2nnc(NC(=O)C3CC3)s2)cc1OC | 8.71 | – | 13 µM [rising, partial curve] |
| COc1cccc(/C=C2\SC(=S)N(CCCC(=O)Nc3ccc(C(=O)O)cc3)C2=O)c1 | -19.4 | – | 0.092 µM [falling, full curve, poor fit] |
| COc1cccc(OC)c1OCCCOc1ccc(C)cc1Br | -1.9 | – | 7.31 µM [rising, single point] |
